Among all 53,000 sequences or so, about 3,700 (7%) were called active.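 The calls were made as follows: active = gene knockdowns whose robust z-score for IL-1 alpha signal is at least 2 or at most -2, so actives lie on both sides; inactive = the rest.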 Some of the results follow.

This experiment in a line: Components of the Cytosolic LPS Sensing Pathway: Gene Identification via Genome-wide siRNA Screen.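 Also: robust z of the log signal after scaling to non-targeting control siRNA wells of the plate.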 The note with it: RAW264.7 macrophages, IL-1a HTRF, actives lie on both sides, screened at 100 nM (by protocol), cells primed 5 h with Pam3CSK4 first. Summed up:
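Cells (RAW264.7, 1×10^4 per well) were transfected with siRNA at 100 nM and cultured 48h at 37 degrees C. Pam3CSK4 was added for 5 hours; LipidA transfection followed for 24 hour. IL-1a was then measured by HTRF.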
In general terms: TR-FRET usually uses a lanthanide donor and a delayed reading to cut background.
With CGACCGUUUUAAAUCAUAATT against C5ar1, the z-score is inactive: -0.745.

Regarding GGAAGUGUAAAGAGUUUAUTT against Vat1l, the z-score was inactive: 0.709. The result for GGCUGUUGACAUUUUACAATT against Heatr1 reads inactive: 0.499; that for GGCAGAAUUCUCAGAGCUUTT against Syn2, inactive: -0.282. On to CUCUGUACUUGGGCAGGAATT against Cyp2c65, for which the z-score is active: 2.9. CCACGGAGACAACUUAGUATT against Scfd2: the z-score was inactive: 0.568. Take GGCAGAUACUGAUUUUCCGTT against Mcam: the z-score was inactive: -1.07. Under GGAAAAACUGGUCUAUCAATT against Polr3f stands inactive: 1.47; under GGAGUGGCCAUUAAAUUUATT against Slc17a8, active: 2.75; under UUCUAAUUGUCACUUGGUGTT against Olfr1474, inactive: -0.133. Under GGUGACGGCUACACUUUUCTT against Grk3 stands inactive: -1.64; under GGUAAUGUUAGCAGAACAATT against Ifih1, inactive: 0.825. For the sequence CCAGUAUUCCUGAAAAUGATT against Tfg, the z-score was inactive: -1.81.

Turning to GGUGUUGUGAGUGAAGAGGTT against Elmod3, the z-score is inactive: 0.252. The result for GCUACCAAAGGAAUUUUGATT against Cul4a reads inactive: 0.627; that for GGAGAUGGAAUGAAGUAUUTT against Fbxl21, inactive: 0.344. Under GGAGGACAGGAAAACAGAATT against H2-Ke6 stands inactive: -1.36; under GAAAAAUACCCUGGCACUGTT against Olfr823, inactive: -0.349. Under GGAGAAGUAUGACAGAAUUTT against Ano9 stands inactive: 0.0361; under CCGAAUCUGUCGUAUCACUTT against Dvl2, inactive: -0.414.

As to GGAUGUUGGUCUCACAUCGTT against Bmpr2, the z-score is inactive: -0.605.

Regarding GGUUCUAAAUCAGAAGUGCTT against Tyw5, the z-score was active: -2.08. For the sequence GGAGUGAGAUUGUUAACAUTT against Ank1, the z-score is inactive: 0.825. Under “CCUAUAGUCUCUGUCAUUUTT against St6galnac5” stands inactive: -0.0318; under GGUGCUUCUGGGAAACUUCTT against Rbm25, inactive: -1.12.

As to CCCUGUGGGCCUUUAGUAUTT against Xlr4c, the z-score is inactive: -1.1.

For GGUUGCGAUGAGGAGACUATT against Olfr1318, the z-score was inactive: -0.0867. As to “GGGCUGAAGUGAAACCAGATT against D930048N14Rik”, the z-score was inactive: 0.415. The result for GGUUAUGAAGGUGUAUACUTT against Notch1 reads inactive: 0.474; that for GGACUCCGUCAUAUACGAATT against Olfr1102, inactive: -0.187; that for GCCUGGACACCAUACCAAUTT against Plxdc2, inactive: 1.02. Regarding CGCUCUCAAGGUAUAGUCCTT against Cyp2d22, the z-score is inactive: -0.183.

Turning to “GGAUGUGAGUUAAAAUCUUTT against 9630013D21Rik”, the z-score is inactive: 0.541. For the sequence GGAGUUGUGGGAAGAAGAATT against Paip2, the z-score was inactive: -1.25. On to GGUAUUCUUAGCACACAUGTT against Vmn1r225, for which the z-score was inactive: 0.496. In the case of GACCUACCAGAUGAAGGUCTT against Vmn1r28, the z-score was inactive: 0.29. Regarding CGUUUGACACUUUUGCCUUTT against Mid1, the z-score is inactive: 1.09. Under GGUUCUCUACAAAGUAAGUTT against Slc35e1 stands inactive: -0.0459; under GGUGGAAUUCUCUUCAACUTT against Mbtps1, inactive: -0.2.

GCAGCCUUGUUUCAGUUCUTT against Fam43a: the z-score is inactive: 0.765. Consider GGAUAUGUACAGGAGCUAUTT against Ankrd13a, for which the z-score was inactive: 1.48. Turning to GGCACAGAAUAUCCACCACTT against Olfr283, the z-score is inactive: -1.01. For the sequence GGUUGUAAGGAACUCUUGGTT against Slc22a29, the z-score was inactive: -0.628. Take CCGACACCUGUCAAUUCUGTT against Tcof1: the z-score was inactive: -0.697. Under GGAGCUCAAACAGGAGAACTT against Lhfpl4 stands inactive: 0.383.

As for GCAGUAUGGGACUAUGCUUTT against Cp, the z-score was inactive: -0.0969. For GUGGCAGCACGACCUAUUCTT against Alyref2, the z-score was inactive: -0.175. On to CCCUGAAACCUCGGUGUUUTT against Vmac, for which the z-score is inactive: 1.34. With GGAAAAGAGCCUCACAGACTT against Crispld1, the z-score was inactive: 0.131.

As for CCAGAGGUUCACAAAACGATT against Anapc5, the z-score was inactive: 0.848. The result for GGAUGAGAGGUAAAGUAACTT against Nptxr reads inactive: 0.802; that for GGAAAGUGACUGCAUGUUCTT against Pgp, inactive: -1.3.

Regarding GGAACUAGCCUUCACUGACTT against Rabggta, the z-score is inactive: 0.931. In the case of GGGCUCCUAUUGGACAAUUTT against Foxj2, the z-score was inactive: 0.27. Under GUACUGCCCGUCCACUUUUTT against Insm2 stands inactive: -0.289. Regarding GGAACUCUGUAGACAGAAUTT against Lpin1, the z-score was inactive: 0.705. The result for GGAAUGUGGACAGUGGACATT against Fbxl20 reads inactive: -0.523; that for GGGAAGAAAGAAAAACAAGTT against Col5a3, inactive: -1.54. “UGCCUAUGCGCGUGUUUUGTT against 4931440P22Rik”: the z-score was inactive: 1.29.

As for GGGCAAAUAUCCUUAGUCATT against Lratd1, the z-score was inactive: 0.536. As for GGAUGUCUGGAAUGAAACATT against Slc17a4, the z-score is active: -3.16. The result for CGGUACUAAACAUUACCUCTT against Olfr633 reads inactive: 0.957. Under GGGCAAGGGUCUCAAACUATT against Rangap1 stands inactive: -1.19.

With GGCCAAGUUUUCUAACUUUTT against Creg2, the z-score was inactive: 0.0503. Under GGAGGUCCUUAUCGCUUGGTT against Vwa8 stands inactive: 0.709; under CCCAGACAGAUUAUGUAUCTT against Btbd16, inactive: 0.234; under UCAGCUUGCUCAUCAUUAATT against Wfdc13, inactive: -0.0724. As for GUGCAGCUAUGAGCUGUUCTT against Msrb1, the z-score was inactive: 1.36. Under CCGAAAGAGGUGAUUGUUATT against Cdk12 stands inactive: -0.143. Under GGAUGCUCAAAACAUUGAATT against Cyp2d26 stands inactive: 1.99. The result for GCCAUUCGUAGUUGAGACGTT against Ppat reads inactive: -0.619. Take GGGUUGUAGCAUUUAAUUATT against Umodl1: the z-score was inactive: 0.895.

Turning to GGAGCUACAGCAGUGCUUUTT against Htr5a, the z-score was inactive: 0.0517. The result for GGUAAUGGUAAAUGAUGUGTT against Celsr3 reads inactive: -0.661; that for GCCACCAUCGUCAUGUUGATT against Ptpre, inactive: 0.323; that for GGAGAUAAUAAUGAAGUCGTT against Sec11c, inactive: 0.353. Under GGCAUAACUGGCUUUGAAGTT against Eif3k stands inactive: -1.79; under CGUGCUGUUAUAAUGUUGUTT against Ccl12, inactive: 1.1; under CCUAUGAAGCCAGUAUCCATT against C1ra, inactive: -0.104. Under CGGAAUCGAAACUUAAUUUTT against Necab1 stands inactive: 0.395. As for GGAUACAGGUUUGAGAUAUTT against Crispld2, the z-score was inactive: -1.93.

Consider CCAACCUGACCUCAAAAUUTT against Olfr913, for which the z-score was inactive: 1.69.

As to GGAAGGUCAAGUCUUUUCUTT against Tesk1, the z-score was inactive: 1.46. The result for GGUUUAUACUCAUAACCUGTT against Kifbp reads active: 2.03; that for GGGACUUAGAAACAAUCCATT against Hsd3b4, inactive: 1.77; that for CCUGGAUCUACUUUUCAGUTT against Mrgprd, inactive: -0.519.

With GGGCCUAAUGAUUUGAUAUTT against Klhdc10, the z-score is inactive: 0.566. The result for GCUCAUGCAUGAGAAUGCCTT against Ifi30 reads inactive: -1.28. On to GGAUGACCAGAACUUCAGUTT against Zfp956, for which the z-score was active: 2.84. The result for GGUAUUUCGGCAACUAUCUTT against Dip2c reads inactive: 1.79; that for GGAAAUAGAUUUUCAGCUCTT against Dnase2b, inactive: 0.138; that for GGACGAUCUCUACAUAGAUTT against Mrps28, inactive: 1.35. CCUACGCAAUGAUGACCAGTT against Med16: the z-score is inactive: 0.466. The result for GGAUGACUCUAUCUUUCUATT against Igfbp4 reads inactive: 0.892. The result for CCUAAUUACUACCACUACATT against Csn3 reads inactive: 1.58.

In the case of CCAUAAACGACGAAAUGAUTT against Usp11, the z-score was inactive: 0.189.

GGAACAAGUGGCUGAAGAUTT against Cyp11b2: the z-score was inactive: 0.566. Under GGGUGUCAUAUGCAAAUUATT against Scube1 stands inactive: 0.274; under GCUGGUAUGACCAAGAGAATT against Mutyh, inactive: 0.679. In the case of CCUAAUCAAAGGCACUAGATT against Lmbrd1, the z-score is inactive: 1.46. The result for CCUUUGUGGCAGUCUUUCATT against Vpreb3 reads inactive: 0.519; that for CCUGGAGAUCCCUCACUUUTT against Olfr1351, inactive: 1.39; that for GCGUGUUGAAUUGAGGAAGTT against Galnt11, active: 4.15. As for CGGCAGUGUUAAAACAUGATT against Fgfr2, the z-score is inactive: -0.696. The result for GGCAUGAACCAAGAUGCUGTT against Nr2e3 reads inactive: 0.326.

Take GCCCAUCAGAUGGCAAGAUTT against Pisd: the z-score is inactive: 1.09.

Consider GGACCAGUAUCAGAACAUCTT against Xrcc5, for which the z-score was inactive: -0.718.
